Assay results as given in PMC10521137.

The chains behind the UniProt entries cited, without tags or fusion partners.
UniProt P22216: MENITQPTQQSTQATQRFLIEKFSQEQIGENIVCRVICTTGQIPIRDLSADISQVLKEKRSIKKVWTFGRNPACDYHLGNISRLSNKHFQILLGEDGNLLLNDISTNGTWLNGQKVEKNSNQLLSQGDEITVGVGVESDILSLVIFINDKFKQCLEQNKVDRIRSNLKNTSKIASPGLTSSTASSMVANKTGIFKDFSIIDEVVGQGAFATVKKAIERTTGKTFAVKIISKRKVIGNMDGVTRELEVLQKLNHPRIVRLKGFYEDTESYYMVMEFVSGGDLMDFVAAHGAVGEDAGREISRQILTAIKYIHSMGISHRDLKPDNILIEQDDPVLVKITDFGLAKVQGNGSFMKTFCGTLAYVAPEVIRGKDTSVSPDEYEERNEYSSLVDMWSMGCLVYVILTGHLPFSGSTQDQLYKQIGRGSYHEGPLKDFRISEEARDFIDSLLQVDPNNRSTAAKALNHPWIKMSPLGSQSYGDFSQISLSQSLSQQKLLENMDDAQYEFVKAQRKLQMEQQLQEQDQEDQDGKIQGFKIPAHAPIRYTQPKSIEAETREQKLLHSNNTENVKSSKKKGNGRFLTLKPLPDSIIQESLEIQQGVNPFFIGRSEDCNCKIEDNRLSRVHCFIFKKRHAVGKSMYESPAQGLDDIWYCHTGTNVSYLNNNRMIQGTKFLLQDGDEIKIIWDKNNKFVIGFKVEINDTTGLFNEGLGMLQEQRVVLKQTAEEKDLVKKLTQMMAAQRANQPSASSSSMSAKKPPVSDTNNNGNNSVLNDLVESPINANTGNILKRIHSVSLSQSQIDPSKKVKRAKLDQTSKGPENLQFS
UniProt P47035: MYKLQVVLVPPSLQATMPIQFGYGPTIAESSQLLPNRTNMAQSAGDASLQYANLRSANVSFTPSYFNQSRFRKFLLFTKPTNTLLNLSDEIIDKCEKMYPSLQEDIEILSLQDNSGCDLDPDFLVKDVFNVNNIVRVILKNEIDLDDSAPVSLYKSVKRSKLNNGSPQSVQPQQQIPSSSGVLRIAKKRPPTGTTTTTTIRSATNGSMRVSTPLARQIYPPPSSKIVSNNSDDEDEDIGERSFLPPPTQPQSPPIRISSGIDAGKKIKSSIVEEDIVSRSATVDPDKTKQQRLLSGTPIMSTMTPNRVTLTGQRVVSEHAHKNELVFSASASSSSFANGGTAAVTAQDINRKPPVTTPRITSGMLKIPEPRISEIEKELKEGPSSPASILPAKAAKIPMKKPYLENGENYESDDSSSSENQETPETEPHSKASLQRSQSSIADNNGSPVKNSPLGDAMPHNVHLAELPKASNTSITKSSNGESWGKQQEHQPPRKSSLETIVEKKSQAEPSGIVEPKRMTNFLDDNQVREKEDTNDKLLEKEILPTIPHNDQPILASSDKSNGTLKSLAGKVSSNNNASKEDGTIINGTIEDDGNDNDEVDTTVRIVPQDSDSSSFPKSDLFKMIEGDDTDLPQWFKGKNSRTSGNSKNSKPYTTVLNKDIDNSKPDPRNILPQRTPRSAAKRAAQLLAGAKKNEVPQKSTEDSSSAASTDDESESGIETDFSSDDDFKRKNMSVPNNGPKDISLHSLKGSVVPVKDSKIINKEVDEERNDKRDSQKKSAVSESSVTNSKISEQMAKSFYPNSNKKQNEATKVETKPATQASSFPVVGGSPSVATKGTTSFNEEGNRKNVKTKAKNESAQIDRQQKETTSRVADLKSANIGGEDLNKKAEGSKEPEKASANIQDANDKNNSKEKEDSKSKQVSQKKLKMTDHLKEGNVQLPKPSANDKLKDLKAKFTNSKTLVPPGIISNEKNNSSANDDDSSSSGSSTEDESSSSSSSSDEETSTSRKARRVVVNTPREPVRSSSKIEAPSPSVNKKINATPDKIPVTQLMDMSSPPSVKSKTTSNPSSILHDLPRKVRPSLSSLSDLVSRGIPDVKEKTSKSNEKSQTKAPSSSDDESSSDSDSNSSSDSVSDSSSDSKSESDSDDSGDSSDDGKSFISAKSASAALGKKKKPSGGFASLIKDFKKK

Key:
[1] = target: Rad53-TurboID (542) (S. cerevisiae) (UniProt P22216); test: proximity labelling; TurboID biotinylation in living yeast released from G1 into a normal S-phase (no HU); denatured lysate, biotinylated proteins purified on streptavidin magnetic beads, western blot of the bound fraction
[2] = target: Rad53-TurboID (542) (S. cerevisiae) (UniProt P22216); test: proximity labelling; TurboID biotinylation in living yeast, with and without 200 mM HU, rad53-TurboID against untagged RAD53; streptavidin purification from whole cell extracts and from chromatin-enriched lysates; mass spectrometry with label-free quantification
[3] = target: Rad53-TurboID (542) (S. cerevisiae) (UniProt P22216); test: proximity labelling; TurboID biotinylation in living yeast released from G1 into S-phase with 200 mM HU; denatured lysate, biotinylated proteins purified on streptavidin magnetic beads, western blot of the bound fraction

| binding [2] | binding [3] | Molecule | binding [1] |
| --- | --- | --- | --- |
| – | – | actin (from UniProt P60010 1-375) | no binding |
| binds | – | Net1 (from UniProt P47035 1-1189) | – |
| binds | – | Pol1, the DNA polymerase subunit of Pol α (protein, UniProt P13382 1-1468) MSSKSEKLEKLRKLQAARNGTSIDDYEGDESDGDRIYDEIDEKEYRARKRQELLHDDFVVDDDGVGYVDRGVEEDWREVDNSSSDEDTGNLASKDSKRKKNIKREKDHQITDMLRTQHSKSTLLAHAKKSQKKSIPIDNFDDILGEFESGEVEKPNILLPSKLRENLNSSPTSEFKSSIKRVNGNDESSHDAGISKKVKIDPDSSTDKYLEIESSPLKLQSRKLRYANDVQDLLDDVENSPVVATKRQNVLQDTLLANPPSAQSLADEEDDEDSDEDIILKRRTMRSVTTTRRVNIDSRSNPSTSPFVTAPGTPIGIKGLTPSKSLQSNTDVATLAVNVKKEDVVDPETDTFQMFWLDYCEVNNTLILFGKVKLKDDNCVSAMVQINGLCRELFFLPREGKTPTDIHEEIIPLLMDKYGLDNIRAKPQKMKYSFELPDIPSESDYLKVLLPYQTPKSSRDTIPSDLSSDTFYHVFGGNSNIFESFVIQNRIMGPCWLDIKGADFNSIRNASHCAVEVSVDKPQNITPTTTKTMPNLRCLSLSIQTLMNPKENKQEIVSITLSAYRNISLDSPIPENIKPDDLCTLVRPPQSTSFPLGLAALAKQKLPGRVRLFNNEKAMLSCFCAMLKVEDPDVIIGHRLQNVYLDVLAHRMHDLNIPTFSSIGRRLRRTWPEKFGRGNSNMNHFFISDICSGRLICDIANEMGQSLTPKCQSWDLSEMYQVTCEKEHKPLDIDYQNPQYQNDVNSMTMALQENITNCMISAEVSYRIQLLTLTKQLTNLAGNAWAQTLGGTRAGRNEYILLHEFSRNGFIVPDKEGNRSRAQKQRQNEENADAPVNSKKAKYQGGLVFEPEKGLHKNYVLVMDFNSLYPSIIQEFNICFTTVDRNKEDIDELPSVPPSEVDQGVLPRLLANLVDRRREVKKVMKTETDPHKRVQCDIRQQALKLTANSMYGCLGYVNSRFYAKPLAMLVTNKGREILMNTRQLAESMNLLVVYGDTDSVMIDTGCDNYADAIKIGLGFKRLVNERYRLLEIDIDNVFKKLLLHAKKKYAALTVNLDKNGNGTTVLEVKGLDMKRREFCPLSRDVSIHVLNTILSDKDPEEALQEVYDYLEDIRIKVETNNIRIDKYKINMKLSKDPKAYPGGKNMPAVQVALRMRKAGRVVKAGSVITFVITKQDEIDNAADTPALSVAERAHALNEVMIKSNNLIPDPQYYLEKQIFAPVERLLERIDSFNVVRLSEALGLDSKKYFRREGGNNNGEDINNLQPLETTITDVERFKDTVTLELSCPSCDKRFPFGGIVSSNYYRVSYNGLQCKHCEQLFTPLQLTSQIEHSIRAHISLYYAGWLQCDDSTCGIVTRQVSVFGKRCLNDGCTGVMRYKYSDKQLYNQLLYFDSLFDCEKNKKQELKPIYLPDDLDYPKEQLTESSIKALTEQNRELMETGRSVVQKYLNDCGRRYVDMTSIFDFMLN | – |
| binds | binds | Mrc1 (protein, UniProt P25588 1-1096) MDDALHALSSLTAKKRTTTYKKVAVPILDENDNTNGNGPNDIDNPPELTGNGFLFANATLNRVKNRLEGKKAPEQNHNNGKDRSENSLPTQLISNLYDGGEELEKSEVKDNSYSEKNVSSSFTQTQRIPVSIQQDKVFNVPIHSVNDGKPTQLIKEDGLVNETSQALKTPLTTGRPGATQRIDSSGATSQTQPIKSIEPQSQIITTSSNHSNALSPKIPIIPTELIGTSPLFQSIQNRGPDTQMDVPPQTAHDEDKTQAIGIPQATHQEQKTQIDTVAQTLQDEVPHTLKIREIQSELASEDSKREKARNVEYKKPQKPIPTKKFFSKESFLADFDDSSSNEDDDIKLENAHPKPVQNDDELHENKSVELNLTDETRINEKRVPLLSSYANNLKREIDSSKCITLDLDSDSDEYGDDDMDSIKLSKDESVLPISQLSKATILNLKARLSKQNQKLSQRPNKSKDPKVDHNVLLNTLRKASRKQILDHQKEVIETKGLKLEDMAKEKEIVENLLEQEILRNKRIRQKEKRREKLEENDFQLNAHDSGSDSGSESSGFALSGNEIADYESSGSENDNRRESDSEKEDDEIILKQKKSHHVKHIINESDSDTEVEAKPKEKADESLPKRIAINLGHYGDNIGEDTDKFQETNVLDTQNIEEVMAERNTIENEVKDDVYVNEEADEAIRRQLIDKEKLQLKQKEKEHEAKIKELKKRGVTNFFEMEAEESEDEWHGIGGADGEGSDDYDSDLEKMIDDYSKNNFNPHEIREMLAAENKEMDIKMINKILYDIKNGGFRNKRAKNSLELELSDDDEDDVLQQYRLKRRELMRKRRLEIGDDAKLVKNPKSSAFFESMVEDIIEYKNPFGAEEEYNLDITSTATDLDTQDNSINVGDNTGNNEQKPVDQKNKKVIISEDFVQKSLSFLKSNNYEDFETDKELSRIQHGNDEAIEDLYTLKQNSSIKSFTNSQTDSTTSKTVNTIIDLEKRPEDEDEVENGDTSLVGVFKHPSIIKSFASRTDINDKFKEGNKTVKILKSYKTVGSSKASITYMGKTRKLIAPKRKTEGSHRYHHDHHNKKMKMKTKTKSNKLFESGQDSFDN | no binding (only S-phase cells without HU) |
| binds | – | Swi6 (protein, UniProt P09959 1-803) MALEEVVRYLGPHNEIPLTLTRDSETGHFLLKHFLPILQQYHDTGNINETNPDSFPTDEERNKLLAHYGIAVNTDDRGELWIELEKCLQLLNMLNLFGLFQDAFEFEEPETDQDEEDPSHSKLPENKTKSENSKDNISSKRINNLQDMSLDSDAHRELGSPLKKLKIDTSVIDAESDSTPNTARGKPNDDINKGPSGDNENNGTDDNDRTAGPIITFTHDLTSDFLSSPLKIMKALPSPVVNDNEQKMKLEAFLQRLLFPEIQEMPTSLNNDSSNRNSEGGSSNQQQQHVSFDSLLQEVNDAFPNTQLNLNIPVDEHGNTPLHWLTSIANLELVKHLVKHGSNRLYGDNMGESCLVKAVKSVNNYDSGTFEALLDYLYPCLILEDSMNRTILHHIIITSGMTGCSAAAKYYLDILMGWIVKKQNRPIQSGTNEKESKPNDKNGERKDSILENLDLKWIIANMLNAQDSNGDTCLNIAARLGNISIVDALLDYGADPFIANKSGLRPVDFGAGTSKLQNTNGGDENSKMVSKGDYDGQKNGKAKKIRSQLLKNPPETTSLINDVQNLLNSISKDYENETVQYNEKLEKLHKELNEQREELANSREQLANVKQLKDEYSLMQEQLTNLKAGIEEEEESFREESKKLGIIADESSGIDWDSSEYDADEPFKVEFLSDFLEDKLQKNYEGDISKLLEAESKEQIMEQIRNQLPAEKIQSMLPPTVLLKARINAYKRNDKHLTNVLDTISTKQSELENKFRRVLSLCLKIDENKVDNMLDGLLQAISSEDPQDIDTDEMQDFLKKHAS | – |

No constants are given. Whether binding was seen depends on the method and setting. Binding seen in cells or lysates may run through a third protein. These calls come from enrichment with a bait or labelling near it, and not all partners need be listed. For some of these results: No binding means not detected with the bait.
